# Percent effect of library compounds

Chains of the proteins cited; added tags and fusions are not shown. Residues count along the entry.
UniProt Q4DA54, 1-478: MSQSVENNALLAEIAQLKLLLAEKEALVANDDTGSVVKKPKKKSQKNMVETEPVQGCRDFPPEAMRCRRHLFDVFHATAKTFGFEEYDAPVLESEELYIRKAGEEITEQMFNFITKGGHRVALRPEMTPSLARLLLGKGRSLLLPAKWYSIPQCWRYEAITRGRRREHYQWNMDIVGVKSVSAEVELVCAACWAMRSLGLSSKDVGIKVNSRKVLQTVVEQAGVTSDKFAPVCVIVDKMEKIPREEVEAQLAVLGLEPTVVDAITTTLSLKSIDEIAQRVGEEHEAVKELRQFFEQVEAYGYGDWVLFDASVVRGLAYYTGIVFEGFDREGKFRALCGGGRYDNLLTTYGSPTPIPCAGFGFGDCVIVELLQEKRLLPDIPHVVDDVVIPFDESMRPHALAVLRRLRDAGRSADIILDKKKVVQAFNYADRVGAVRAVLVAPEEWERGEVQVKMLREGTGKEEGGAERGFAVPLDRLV
UniProt P9WPC5, whole entry: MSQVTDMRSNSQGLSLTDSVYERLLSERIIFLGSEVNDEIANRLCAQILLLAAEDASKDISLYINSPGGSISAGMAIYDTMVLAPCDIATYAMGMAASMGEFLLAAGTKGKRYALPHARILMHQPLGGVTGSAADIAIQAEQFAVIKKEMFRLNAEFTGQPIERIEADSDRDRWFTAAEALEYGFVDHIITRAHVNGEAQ
UniProt P9WPC3, whole entry partner: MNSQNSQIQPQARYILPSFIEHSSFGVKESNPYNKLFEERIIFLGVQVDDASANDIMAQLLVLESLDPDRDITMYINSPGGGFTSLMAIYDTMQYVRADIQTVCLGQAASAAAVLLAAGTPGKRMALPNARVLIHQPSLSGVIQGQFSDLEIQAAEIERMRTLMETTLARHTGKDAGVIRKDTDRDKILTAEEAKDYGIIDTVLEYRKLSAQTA

Source: ChEMBL document CHEMBL3988442, “University of Dundee, Small-Polar-MMV Screening Library” (2021).

Each number is a percent effect as filed. The record does not define 0% and 100%; most values in the screen are far below 50% and negative numbers occur (in some assays of this library far below -100). This is an unselected part of the compounds tested.

TcHisRS: 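Histidine-tRNA ligase, Trypanosoma cruzi CL Brener (UniProt Q4DA54). Enzyme assay of histidyl-tRNA synthetase; the read-out is not stated. Tested at 30 µM. The record gives no direction; compounds that gave an IC50 in retests scored well above the rest, so higher reads as stronger inhibition. Size under these conditions: about 69,000 compounds, about 31 of them at 50% or above in at least one test.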
ClpP1P2: 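ClpP1P2, Mycobacterium tuberculosis (UniProt P9WPC5 and UniProt P9WPC3). Protease assay of ClpP1P2, read by the AMC dye that it sets free. Tested at 50 µM. Direction is inferred from only a few compounds that gave an IC50; most scored high, so higher reads as stronger inhibition. Most other retested compounds had strongly negative values. Of about 69,000 compounds tested this way, about 10 (0.015%) reached 50% or more in at least one test.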

SMILES,TcHisRS,ClpP1P2
O=C(O)[C@@H]1CN(Cc2cc3c(cc2Cl)OCO3)C[C@H]1C1CC1,-8.696%,-37.79%
Cc1c(NC(=O)CN2CCN(C3CCCC3)C(=O)C2)cnn1C,3.39%,-16.59%
Cn1ccc(CN2CCCC23CCNCC3)n1,3.743%,7.409%
COc1ccc(C)cc1-n1c(COC(C)C)n[nH]c1=O,2.703%,-14.17%
O=C1NC[C@@]2(C(=O)O)CN(Cc3cccc(OC4CCCC4)c3)C[C@@H]12,4.348%,2.174%
Cc1ccc(CN(C)C(=O)CN2CCOC(Cn3cccn3)C2)o1 (centres undefined),4.274%,-6.677%
O=C(CCC1CCCO1)NCCCC(=O)Nc1ccc(Cl)cc1 (centres undefined),11.88%,9.731%
O=C(CC1CCCO1)NCc1ccccc1Cn1cncn1 (centres undefined),-1.515%,-3.333%
Cc1ccc(NC2CCN(C(=O)COC3CCCCC3)CC2)nn1,-0.2865%,1.255%
CC1C(=O)Nc2cccnc2N1S(=O)(=O)c1ccc(C#N)c(Cl)c1 (centres undefined),0.5291%,0.474%
CC(=O)NC1(C(=O)N2CCC(Nc3cccnn3)CC2)CCCCC1,0%,-7.819%
Cc1nc(CN2CCC(CNC(=O)Nc3ccccc3)CC2)oc1C,4.651%,-0.2612%
CS(=O)(=O)N1CC2(CCN(C3CCCCC3)C2)Cc2ccccc21 (centres undefined),10.06%,-17.64%
Cc1ccccc1CC(=O)N(C)CC1(O)CCCN(c2ccccn2)C1 (centres undefined),11.99%,-10.85%
CC(=O)NCCNC(=O)NCCCc1cccc(F)c1,5.102%,-5.132%
O=c1[nH][nH]cc1-c1ccnc(NCCc2ccc(F)cc2)n1,13.56%,14.6%
CC(=O)NCCOc1cccc(Br)c1,1.235%,-6.895%
O=C([C@H]1C[C@@H]2CCN(c3cccc(F)c3)C[C@H]2O1)N1CCCC1,0.9524%,-14.44%
CS(=O)(=O)CCOCCNc1ccc2ccc(F)cc2n1,3.448%,-1.811%
O=S(=O)(c1ccc2c(c1)OCCO2)N1CCc2ccccc2C1,-9.453%,6.086%
O=C(c1cnccn1)N1CCCC2(CCN(Cc3cccnc3)C2)C1 (centres undefined),4.372%,-6.534%
CC(C)NCc1cccnc1N1CCN(c2ccccn2)CC1,-0.5952%,-9.323%
CC(C)(C)CNC[C@H]1Cn2ccnc2CO1,9.783%,-5.422%
Cn1cc(CN2CCOC(c3cccc(-c4cncnc4)n3)C2)cn1 (centres undefined),5.65%,-15.19%
CCc1cnc(CN(C)C2CCN(c3sccc3C#N)C2=O)s1 (centres undefined),6.952%,-2.256%
CCCc1nnc(N2CCN(c3ccccc3F)CC2)o1,-13.13%,0.01536%
Cc1ccc(C2(CN(C)Cc3sccc3C)CCNCC2)nc1,7.2%,10.27%
CC(=O)N1CCN(C(=O)CCOc2ccc(C(C)C)cc2)CC1,2.662%,11.53%
COC[C@@]12CC[C@@H](N3CCOCC3)C[C@H]1CCN(c1ncccn1)C2,1.653%,-2.811%
COC[C@@H]1CCC[C@]12CN(CCc1ccccc1)CCO2,9.756%,0.5224%
CC(C)CC(C#N)NC(=O)c1ccc(Oc2cccnc2)cc1 (centres undefined),-1.734%,4.658%
CCc1ccsc1C(=O)NCCn1nc2ccccn2c1=O,6.122%,-49.05%
O=C(NCCNC(=O)c1scnc1Cl)c1cccs1,5.085%,-21.48%
Cc1ocnc1C(=O)N1CC[C@@]2(O)CCN(C(=O)N3CCCC3)C[C@H]2C1,6.25%,-4.741%
CCOc1ccc(C(=O)N2CCCC2c2c(C)nn(C)c2Cl)cn1 (centres undefined),8.14%,-8.17%
Cc1ccccc1Oc1ncccc1CNS(C)(=O)=O,1.674%,-11.76%
CCS(=O)(=O)N1CCc2onc(COc3ccccn3)c2C1,6.329%,-1.133%
CC(C)(C)c1cc(=O)[nH]c(-c2ccccc2CN2CCC[C@@H](O)C2)n1,2.299%,-3.154%
CCn1ncc(Cl)c1CN(C)C(=O)CCn1ncc(Br)c1C,-8.808%,-5.66%
Cc1nc(C)n(C2CCCN(C(=O)c3cn4c(C)cccc4n3)C2)n1 (centres undefined),5.042%,-12.27%
CCc1cnc(CN(C(C)=O)C2CCN(CCS(C)(=O)=O)C2)o1 (centres undefined),-0.813%,0.2247%
CC(C)=CCN1C[C@H]2CC[C@@H]1CN(C(=O)c1ccc(S(N)(=O)=O)cc1)C2,0%,-20.31%
c1coc(CN2CC[C@@H]3O[C@@H](COCC4CCOCC4)CC[C@@H]32)c1,5.025%,-12.11%
C/N=C1\c2cc3cc(OC)ccc3n2CCN1C,-1.98%,-2.485%
CNC(=O)C1(C)CCCN(c2cnccn2)C1 (centres undefined),8.365%,-15.12%
Cc1ccccc1C(C)NC(=O)Cc1c(C)nc2cc(=O)[nH]n2c1C (centres undefined),7.937%,6.079%
CCn1cnnc1CN(C)Cc1nc(-c2cc(OC)ccc2F)oc1C,4.878%,11.43%
COC1COC2(CCN(S(=O)(=O)c3ccc(F)cc3)CC2)C1 (centres undefined),-1.031%,-11.22%
CO[C@H]1CNC[C@@H]1NC(=O)CCc1nc(-c2ccccc2)no1,3.879%,-4.707%
O=C(NC1(c2nc(C3CC3)no2)CCCCC1)c1ccncc1,7.317%,-20.88%
CC(C)(C)n1ncc2c1NC(=O)CC2c1cccs1 (centres undefined),-1.98%,-9.061%
CC(=O)c1cccc(NC(=O)N2CCCCC2CN2CCCC2=O)c1 (centres undefined),5.882%,9.377%
Cc1ccc(NCCCNC(=O)C2CC3(CCNCC3)CN2C)nc1 (centres undefined),0.8403%,-1.794%
N#Cc1ccc(N2CCCN(C(=O)CC3CCCO3)CC2)cc1 (centres undefined),0.7519%,6.291%
O=C(c1cc[nH]n1)N1CCc2cc(Br)sc2C1,7.447%,-5.387%
CCn1cnnc1CCNC(=O)c1ccc(Br)cc1F,9.524%,-5.413%
O=C(CO)N1CCC(c2cncc(-c3cccc(Cl)c3)n2)CC1,12.57%,13.83%
CCS(=O)(=O)c1ncc(CN2CCSCC2)n1CCc1ccccc1,1.734%,-15.8%
CN1C[C@H]2CN(C(=O)c3ccc4c(c3)OCO4)CCN2C1=O,13.86%,-1.108%
Cc1ccsc1C(=O)N1CC(C(=O)NC(C)C)C2(CCOCC2)C1 (centres undefined),7.527%,8.688%
CC(CN1CCOCC1)N(Cc1ccccc1)Cc1ccncc1 (centres undefined),8.108%,-13.77%
CC(C)(C)c1cn(C2CCN(C3CCSC3)CC2)nn1 (centres undefined),-29.28%,0.2381%
Cc1cc(NC(=O)Cc2ccccc2O)c[nH]c1=O,7.182%,0.02386%
CCC[C@@H]1CN(C(=O)c2cc3ccccc3cc2O)C[C@H]1N(C)C,-7.216%,-52.33%
CCN(C(c1cccnc1)c1ccc(F)cc1F)S(C)(=O)=O (centres undefined),0%,9.949%

Some entries from above, unchanged:

SMILES	TcHisRS	ClpP1P2
CCS(=O)(=O)c1ncc(CN2CCSCC2)n1CCc1ccccc1	1.734%	-15.8%
O=C(CCC1CCCO1)NCCCC(=O)Nc1ccc(Cl)cc1 (centres undefined)	11.88%	9.731%
COC[C@@H]1CCC[C@]12CN(CCc1ccccc1)CCO2	9.756%	0.5224%
CCc1cnc(CN(C)C2CCN(c3sccc3C#N)C2=O)s1 (centres undefined)	6.952%	-2.256%
Cc1cc(NC(=O)Cc2ccccc2O)c[nH]c1=O	7.182%	0.02386%
CCn1cnnc1CN(C)Cc1nc(-c2cc(OC)ccc2F)oc1C	4.878%	11.43%
Cc1nc(C)n(C2CCCN(C(=O)c3cn4c(C)cccc4n3)C2)n1 (centres undefined)	5.042%	-12.27%
O=C(c1cnccn1)N1CCCC2(CCN(Cc3cccnc3)C2)C1 (centres undefined)	4.372%	-6.534%